Where “and” joins values, the source holds several entries; their conditions need not be identical. Identical values can stand only once. The list shows a part of the results. Single wells; the ratio to wells without odorant was worked out here, and repeats agree poorly.
How the values were obtained:
Test in all cases: odorant receptor activation (CRE luciferase / Renilla) (fold of no-odor wells); higher = more activation
Conditions in all cases: 100 µM
OR2A25 clone 1387 = tested on: OR2A25 clone 1387
OR2A4 clone 1386 = tested on: OR2A4 clone 1386
OR2A5 clone 1437 = tested on: OR2A5 clone 1437
OR2A7 clone 1077 = tested on: OR2A7 clone 1077
OR2AE1 I77T clone 1079 = tested on: OR2AE1 I77T clone 1079
OR2AG1 clone 1112 = tested on: OR2AG1 clone 1112
[1] = tested on: OR2AG2 Y28C/R54P/R299G clone 1486
OR2AJ1 M1V clone 1448 = tested on: OR2AJ1 M1V clone 1448
OR2AK2 V188M clone 1415 = tested on: OR2AK2 V188M clone 1415
OR2AT4 clone 1522 = tested on: OR2AT4 clone 1522
OR2B11 clone 1418 = tested on: OR2B11 clone 1418
OR2B3 clone 1063 = tested on: OR2B3 clone 1063
OR2B6 clone 1436 = tested on: OR2B6 clone 1436
OR2A2 clone 1476 = tested on: OR2A2 clone 1476
OR2AP1 clone 1256 = tested on: OR2AP1 clone 1256
OR2B2 clone 1333 = tested on: OR2B2 clone 1333
OR2A2 F280L clone 1541 = tested on: OR2A2 F280L clone 1541
OR2A42 clone 1565 = tested on: OR2A42 clone 1565
OR2A7 clone 1543 = tested on: OR2A7 clone 1543
OR2B2 clone 1544 = tested on: OR2B2 clone 1544

Compound | odorant receptor activation (OR2A25 clone 1387) | odorant receptor activation (OR2A4 clone 1386) | odorant receptor activation (OR2A5 clone 1437) | odorant receptor activation (OR2A7 clone 1077) | odorant receptor activation (OR2AE1 I77T clone 1079) | odorant receptor activation (OR2AG1 clone 1112) | odorant receptor activation [1] | odorant receptor activation (OR2AJ1 M1V clone 1448) | odorant receptor activation (OR2AK2 V188M clone 1415) | odorant receptor activation (OR2AT4 clone 1522) | odorant receptor activation (OR2B11 clone 1418) | odorant receptor activation (OR2B3 clone 1063) | odorant receptor activation (OR2B6 clone 1436) | odorant receptor activation (OR2A2 clone 1476) | odorant receptor activation (OR2AP1 clone 1256) | odorant receptor activation (OR2B2 clone 1333) | odorant receptor activation (OR2A2 F280L clone 1541) | odorant receptor activation (OR2A42 clone 1565) | odorant receptor activation (OR2A7 clone 1543) | odorant receptor activation (OR2B2 clone 1544)
CC1COCc2cc3c(cc21)C(C)(C)C(C)C3(C)C (centres undefined) [galaxolide] | 3.41 | 3.6 | 3.43 | 4.08 | 2.31 | 3.47 | 2.34 and 3.82 | 3.27 | 3.55 | 3.79 and 6.64 | 2.51 | 4.01 | 3.03 | – | – | – | – | – | – | –
CC(=O)c1ccccc1 [acetophenone] | 1.12 | 0.827 | 1.2 | 0.425 | 0.953 | 0.57 | 1.08 and 0.71 | 1.07 and 0.561 | 0.876 | 1.12 and 0.813 | 1.04 | 1.13 | 1.09 | 1.2 and 1.06 | 1.35 | 0.617 | – | – | – | –
c1cnccn1 [pyrazine] | 1.11 | 1.32 | 1.19 | 0.66 | 1.17 | 0.912 | 0.78 | 1.21 | 1.11 | 1.01 | 1.45 | 1.22 | 1.24 | 0.761 | 0.712 | 0.672 | 0.997 | 0.857 | 0.805 | 0.957
CC1=NC(C)SC1C (centres undefined) | 1.27 | 0.857 | 1.31 | 0.915 | 1.12 | 0.668 | 1.24 and 1.11 | 1.1 and 0.83 | 1 | 0.992 and 0.897 | 0.824 | 1.01 | 1.07 | 1.23 and 1 | 2.02 | 0.998 | – | – | – | –
CC(=O)OCC=C(C)CCC=C(C)C [geranyl acetate] | 2.86 | 0.999 | 1.14 | 2.31 | 1.54 | 1.7 | 0.618 and 1.67 | 1.02 | 0.975 | – | 1.13 | 1.4 | 1.08 | 1.01 and 1.15 | 0.998 and 1 | 0.877 and 1.64 | 1.09 and 1.62 | 1.52 | 1.27 and 1.19 | 1.08 and 1.3
O=C1CCCCC1 [Cyclohexanone] | 1.02 | 0.771 | 0.98 | 0.412 | 1.56 | 0.553 | 1.31 and 1.07 | 0.914 and 0.695 | 0.81 | 1.34 and 1.01 | 1.23 | 1.28 | 0.961 | 0.758 and 1.09 | 0.554 | 0.751 | – | – | – | –
CCCCO [1-butanol] | 1.08 | 0.776 | 0.945 | 3.29 | 22.1 | 9.85 | 1.13 | 0.673 | 1.27 | 1.27 | 1.49 | 10.1 | 1.01 | 1.1 | 1.05 | 0.936 | 1.18 | 0.541 | 1.07 | 1.25
CC(C)C=O [isobutyraldehyde] | 0.901 | 0.763 | 1.02 | 1.42 | 0.854 | 1.63 | 0.92 and 1.02 | 0.882 | 0.722 | 0.973 and 1.03 | 0.815 | 0.76 | 0.841 | 0.926 and 1.05 | 1.07 and 0.729 | 1.09 and 0.75 | 1.17 and 1.05 | 1.09 | 1.43 and 0.712 | 0.927 and 1.06
CC=Cc1ccc(O)c(OC)c1 [isoeugenol] | 1.69 | 1.47 | 1.79 | 1.15 | 0.795 | 1.61 | 0.897 and 2.14 | 1.54 | 1.49 | 1.4 and 3.52 | 1.28 | 1.28 | 1.23 | 1.02 and 1.79 | 0.812 and 1.33 | 1.14 and 1.28 | 1.18 and 2.13 | 1.55 | 1.14 and 1.62 | 0.834 and 2.24
CC12C=CCC1C1CCC3=CC(=O)CCC3(C)C1CC2 (centres undefined) [androstadienone] | 0.818 | 1.01 | 1.13 | 2.08 | 2 | 6.08 | 0.799 and 1.26 | 0.891 | 0.808 | 0.753 and 2.01 | 1.02 | 1.2 | 0.93 | 1.14 and 1.24 | 0.711 and 0.903 | 1.19 and 0.929 | 1.1 and 1.4 | – | 1.27 and 1.16 | 1.09 and 1.12
CC1=CCC(C(C)(C)O)CC1 (centres undefined) [terpineol] | 1.29 | 1.23 | 1.05 | 0.698 | 1.09 | 1.03 | 0.763 | 1.03 | 1.05 | 1.01 | 1.15 | 1.06 | 1.06 | 0.891 | 0.973 | 0.908 | 0.983 | 0.445 | 0.868 | 0.913
CCCCCCCCOC(C)=O [octyl acetate] | 1.25 | 1.01 | 0.869 | 0.878 | 1.01 | 1.19 | 0.977 | 0.843 | 0.769 | 0.968 | 0.961 | 0.893 | 0.801 | 1.08 | 0.946 | 1.32 | 0.738 | 0.825 | 0.862 | 1.15
CCCC(=O)O [butyric acid] | 0.316 | 0.23 | 0.331 | 0.861 | 1.2 | 0.851 | 0.863 | 0.165 | 0.248 | 1.2 | 0.341 | 1.35 | 0.218 | 1.29 | 0.797 | 0.914 | 0.97 | 0.818 | 0.735 | 1.01
CCC1(O)C2(C)CCC(C2)C1(C)C (centres undefined) [2-ethylfenchol] | 0.612 | 0.799 | 0.631 | 2.37 | 23.5 | 6.66 | 1.15 | 0.836 | 1.04 | 1.34 | 0.999 | 10.8 | 1.22 | 1.24 | 1.09 | 0.712 | 1.32 | 0.479 | 1.05 | 1.21
